Data published in publication PMC12455829.

By UniProt entry, the sequences of proteins in these tests, tags left out.
UniProt P51532: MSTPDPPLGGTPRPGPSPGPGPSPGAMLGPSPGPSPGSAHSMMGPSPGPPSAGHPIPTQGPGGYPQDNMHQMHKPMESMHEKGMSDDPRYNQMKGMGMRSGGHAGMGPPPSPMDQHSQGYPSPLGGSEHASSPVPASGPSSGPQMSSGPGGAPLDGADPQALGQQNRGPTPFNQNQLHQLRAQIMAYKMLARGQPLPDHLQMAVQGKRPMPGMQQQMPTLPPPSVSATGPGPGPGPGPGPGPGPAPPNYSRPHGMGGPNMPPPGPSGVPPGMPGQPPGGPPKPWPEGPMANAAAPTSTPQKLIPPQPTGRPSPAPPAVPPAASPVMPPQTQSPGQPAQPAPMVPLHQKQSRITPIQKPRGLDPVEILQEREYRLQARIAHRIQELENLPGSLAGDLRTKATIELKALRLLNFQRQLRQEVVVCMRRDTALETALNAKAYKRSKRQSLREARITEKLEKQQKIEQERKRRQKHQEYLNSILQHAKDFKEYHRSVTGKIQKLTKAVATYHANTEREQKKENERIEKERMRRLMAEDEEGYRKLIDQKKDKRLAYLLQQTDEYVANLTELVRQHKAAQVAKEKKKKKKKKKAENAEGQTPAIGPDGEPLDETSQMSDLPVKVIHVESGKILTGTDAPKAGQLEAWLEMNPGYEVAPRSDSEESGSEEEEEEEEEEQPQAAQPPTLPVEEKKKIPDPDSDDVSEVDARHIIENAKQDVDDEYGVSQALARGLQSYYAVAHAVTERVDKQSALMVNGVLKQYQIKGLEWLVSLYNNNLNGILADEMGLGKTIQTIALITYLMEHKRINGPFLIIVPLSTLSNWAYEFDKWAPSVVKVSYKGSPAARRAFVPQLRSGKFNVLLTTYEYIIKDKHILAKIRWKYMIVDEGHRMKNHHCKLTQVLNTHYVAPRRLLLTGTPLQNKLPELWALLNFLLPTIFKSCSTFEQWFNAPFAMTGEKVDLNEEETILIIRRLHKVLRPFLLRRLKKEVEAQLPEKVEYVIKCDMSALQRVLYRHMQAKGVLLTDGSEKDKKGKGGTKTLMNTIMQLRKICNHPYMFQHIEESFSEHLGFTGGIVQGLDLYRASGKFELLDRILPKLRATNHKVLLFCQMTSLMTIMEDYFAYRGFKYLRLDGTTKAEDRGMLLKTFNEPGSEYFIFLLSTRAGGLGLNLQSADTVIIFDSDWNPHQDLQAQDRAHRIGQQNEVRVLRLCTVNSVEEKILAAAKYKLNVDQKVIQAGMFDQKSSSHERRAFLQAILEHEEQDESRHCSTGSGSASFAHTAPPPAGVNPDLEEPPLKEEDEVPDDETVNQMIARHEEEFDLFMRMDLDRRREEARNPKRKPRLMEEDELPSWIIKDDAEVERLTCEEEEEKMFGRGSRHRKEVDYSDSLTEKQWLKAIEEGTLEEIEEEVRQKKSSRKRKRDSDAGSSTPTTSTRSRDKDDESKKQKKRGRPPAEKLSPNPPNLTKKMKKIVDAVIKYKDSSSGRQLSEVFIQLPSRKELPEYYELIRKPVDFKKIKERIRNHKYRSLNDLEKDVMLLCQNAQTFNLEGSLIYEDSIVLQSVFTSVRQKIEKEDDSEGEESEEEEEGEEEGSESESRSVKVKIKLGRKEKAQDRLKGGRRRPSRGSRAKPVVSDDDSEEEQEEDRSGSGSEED
UniProt Q9H8M2: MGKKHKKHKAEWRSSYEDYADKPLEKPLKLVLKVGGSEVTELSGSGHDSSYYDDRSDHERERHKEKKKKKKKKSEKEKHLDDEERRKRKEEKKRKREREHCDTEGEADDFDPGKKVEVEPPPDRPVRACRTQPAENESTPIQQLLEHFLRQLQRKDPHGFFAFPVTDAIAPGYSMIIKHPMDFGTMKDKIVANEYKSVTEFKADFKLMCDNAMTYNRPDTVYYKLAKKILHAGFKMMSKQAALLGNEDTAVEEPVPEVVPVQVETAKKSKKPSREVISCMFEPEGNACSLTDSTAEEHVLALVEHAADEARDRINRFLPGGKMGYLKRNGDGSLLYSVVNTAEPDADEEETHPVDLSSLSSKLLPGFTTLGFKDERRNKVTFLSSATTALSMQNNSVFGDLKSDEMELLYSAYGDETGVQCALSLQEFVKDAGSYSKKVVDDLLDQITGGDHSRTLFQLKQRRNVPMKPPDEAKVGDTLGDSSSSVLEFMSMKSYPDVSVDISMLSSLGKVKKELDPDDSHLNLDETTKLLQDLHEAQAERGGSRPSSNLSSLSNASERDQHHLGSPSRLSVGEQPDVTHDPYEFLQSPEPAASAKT
UniProt Q9P2D1: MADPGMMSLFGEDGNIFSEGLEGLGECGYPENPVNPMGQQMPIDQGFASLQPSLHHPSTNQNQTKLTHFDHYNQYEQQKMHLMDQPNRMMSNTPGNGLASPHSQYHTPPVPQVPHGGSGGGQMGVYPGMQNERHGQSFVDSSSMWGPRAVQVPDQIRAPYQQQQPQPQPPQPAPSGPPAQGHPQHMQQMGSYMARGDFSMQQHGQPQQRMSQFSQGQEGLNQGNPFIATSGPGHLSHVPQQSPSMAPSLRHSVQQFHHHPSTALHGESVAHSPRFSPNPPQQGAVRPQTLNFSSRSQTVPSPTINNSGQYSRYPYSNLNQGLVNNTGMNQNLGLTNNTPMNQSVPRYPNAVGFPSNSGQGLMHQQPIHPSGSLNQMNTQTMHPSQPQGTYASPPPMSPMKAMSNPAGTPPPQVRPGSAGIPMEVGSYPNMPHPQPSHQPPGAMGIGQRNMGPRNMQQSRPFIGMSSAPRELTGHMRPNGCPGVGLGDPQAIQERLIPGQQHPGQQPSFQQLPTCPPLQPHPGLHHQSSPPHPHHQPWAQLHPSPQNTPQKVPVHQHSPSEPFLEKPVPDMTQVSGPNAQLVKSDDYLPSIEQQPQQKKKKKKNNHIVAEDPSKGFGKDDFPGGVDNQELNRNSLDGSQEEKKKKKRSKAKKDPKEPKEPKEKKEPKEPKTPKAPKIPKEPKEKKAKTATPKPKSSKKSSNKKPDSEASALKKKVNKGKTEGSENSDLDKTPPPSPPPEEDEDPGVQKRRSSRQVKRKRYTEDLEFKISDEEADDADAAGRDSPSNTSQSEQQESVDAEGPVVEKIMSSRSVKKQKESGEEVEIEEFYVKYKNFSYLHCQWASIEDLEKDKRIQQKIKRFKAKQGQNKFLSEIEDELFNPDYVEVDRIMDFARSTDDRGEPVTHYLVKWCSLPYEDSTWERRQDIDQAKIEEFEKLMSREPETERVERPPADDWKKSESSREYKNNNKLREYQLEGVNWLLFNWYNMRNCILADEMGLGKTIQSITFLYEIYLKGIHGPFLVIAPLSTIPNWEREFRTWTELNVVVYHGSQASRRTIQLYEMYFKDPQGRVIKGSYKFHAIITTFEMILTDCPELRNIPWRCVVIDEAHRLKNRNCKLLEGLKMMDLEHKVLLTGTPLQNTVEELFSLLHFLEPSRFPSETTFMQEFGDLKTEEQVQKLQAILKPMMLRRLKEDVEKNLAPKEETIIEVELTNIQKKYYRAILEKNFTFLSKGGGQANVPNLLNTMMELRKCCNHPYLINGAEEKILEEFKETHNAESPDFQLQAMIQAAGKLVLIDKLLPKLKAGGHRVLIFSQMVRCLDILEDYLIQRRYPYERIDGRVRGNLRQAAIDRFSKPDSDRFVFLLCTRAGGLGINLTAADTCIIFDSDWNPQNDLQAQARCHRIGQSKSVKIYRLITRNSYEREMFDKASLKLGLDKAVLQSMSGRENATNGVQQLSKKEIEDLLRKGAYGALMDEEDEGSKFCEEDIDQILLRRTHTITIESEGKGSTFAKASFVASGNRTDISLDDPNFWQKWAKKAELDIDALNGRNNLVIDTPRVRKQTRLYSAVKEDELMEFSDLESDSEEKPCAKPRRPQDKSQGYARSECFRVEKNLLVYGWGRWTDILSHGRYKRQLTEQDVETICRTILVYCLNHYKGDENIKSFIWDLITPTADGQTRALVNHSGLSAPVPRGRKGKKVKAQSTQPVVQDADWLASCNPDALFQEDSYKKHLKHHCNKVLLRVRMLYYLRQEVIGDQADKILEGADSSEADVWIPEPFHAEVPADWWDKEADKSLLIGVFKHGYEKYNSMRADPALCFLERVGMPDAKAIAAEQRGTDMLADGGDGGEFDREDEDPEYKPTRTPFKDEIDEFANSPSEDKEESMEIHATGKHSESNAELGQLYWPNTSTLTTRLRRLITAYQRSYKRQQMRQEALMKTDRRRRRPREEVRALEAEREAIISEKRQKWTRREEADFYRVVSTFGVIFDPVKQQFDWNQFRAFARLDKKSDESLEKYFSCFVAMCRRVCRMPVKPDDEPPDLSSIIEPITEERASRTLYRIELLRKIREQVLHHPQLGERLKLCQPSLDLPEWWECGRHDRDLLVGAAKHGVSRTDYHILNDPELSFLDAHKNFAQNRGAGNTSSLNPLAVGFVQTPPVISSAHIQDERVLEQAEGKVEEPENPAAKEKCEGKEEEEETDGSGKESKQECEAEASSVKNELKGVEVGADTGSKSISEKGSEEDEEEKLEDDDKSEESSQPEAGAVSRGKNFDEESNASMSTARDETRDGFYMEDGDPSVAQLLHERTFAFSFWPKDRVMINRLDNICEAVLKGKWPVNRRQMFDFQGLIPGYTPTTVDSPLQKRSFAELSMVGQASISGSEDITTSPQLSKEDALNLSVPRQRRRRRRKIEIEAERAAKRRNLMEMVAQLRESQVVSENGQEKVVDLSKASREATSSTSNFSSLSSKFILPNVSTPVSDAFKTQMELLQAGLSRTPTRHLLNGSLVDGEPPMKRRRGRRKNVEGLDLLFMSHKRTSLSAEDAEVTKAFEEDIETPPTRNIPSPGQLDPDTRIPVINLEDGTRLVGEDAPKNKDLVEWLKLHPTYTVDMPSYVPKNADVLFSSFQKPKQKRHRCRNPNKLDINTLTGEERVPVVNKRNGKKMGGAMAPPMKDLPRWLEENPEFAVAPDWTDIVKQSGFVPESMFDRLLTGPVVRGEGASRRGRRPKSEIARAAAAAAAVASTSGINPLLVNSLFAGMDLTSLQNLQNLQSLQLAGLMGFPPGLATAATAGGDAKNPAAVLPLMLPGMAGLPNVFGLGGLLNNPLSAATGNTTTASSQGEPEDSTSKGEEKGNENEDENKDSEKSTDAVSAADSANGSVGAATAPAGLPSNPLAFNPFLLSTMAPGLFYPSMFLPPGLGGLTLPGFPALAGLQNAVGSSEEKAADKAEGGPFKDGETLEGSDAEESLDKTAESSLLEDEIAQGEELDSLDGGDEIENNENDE
UniProt Q15723: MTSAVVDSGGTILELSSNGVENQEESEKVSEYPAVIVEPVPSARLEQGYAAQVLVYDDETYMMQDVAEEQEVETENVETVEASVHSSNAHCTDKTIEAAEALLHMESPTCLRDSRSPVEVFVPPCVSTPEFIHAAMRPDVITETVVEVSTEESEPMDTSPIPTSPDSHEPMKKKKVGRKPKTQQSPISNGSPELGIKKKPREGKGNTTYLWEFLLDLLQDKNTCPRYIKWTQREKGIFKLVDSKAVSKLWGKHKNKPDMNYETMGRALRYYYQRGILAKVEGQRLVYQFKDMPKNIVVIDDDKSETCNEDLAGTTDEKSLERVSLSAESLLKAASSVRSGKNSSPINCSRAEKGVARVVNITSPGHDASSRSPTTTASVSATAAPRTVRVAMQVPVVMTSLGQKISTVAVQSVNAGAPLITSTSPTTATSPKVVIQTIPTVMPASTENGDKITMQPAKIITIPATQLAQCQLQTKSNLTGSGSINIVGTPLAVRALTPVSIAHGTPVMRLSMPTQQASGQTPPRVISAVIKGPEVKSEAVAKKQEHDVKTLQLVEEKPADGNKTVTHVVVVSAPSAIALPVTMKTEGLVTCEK
UniProt Q15651: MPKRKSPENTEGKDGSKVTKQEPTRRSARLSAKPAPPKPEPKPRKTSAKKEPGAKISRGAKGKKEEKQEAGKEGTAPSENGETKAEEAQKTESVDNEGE
UniProt Q8N972: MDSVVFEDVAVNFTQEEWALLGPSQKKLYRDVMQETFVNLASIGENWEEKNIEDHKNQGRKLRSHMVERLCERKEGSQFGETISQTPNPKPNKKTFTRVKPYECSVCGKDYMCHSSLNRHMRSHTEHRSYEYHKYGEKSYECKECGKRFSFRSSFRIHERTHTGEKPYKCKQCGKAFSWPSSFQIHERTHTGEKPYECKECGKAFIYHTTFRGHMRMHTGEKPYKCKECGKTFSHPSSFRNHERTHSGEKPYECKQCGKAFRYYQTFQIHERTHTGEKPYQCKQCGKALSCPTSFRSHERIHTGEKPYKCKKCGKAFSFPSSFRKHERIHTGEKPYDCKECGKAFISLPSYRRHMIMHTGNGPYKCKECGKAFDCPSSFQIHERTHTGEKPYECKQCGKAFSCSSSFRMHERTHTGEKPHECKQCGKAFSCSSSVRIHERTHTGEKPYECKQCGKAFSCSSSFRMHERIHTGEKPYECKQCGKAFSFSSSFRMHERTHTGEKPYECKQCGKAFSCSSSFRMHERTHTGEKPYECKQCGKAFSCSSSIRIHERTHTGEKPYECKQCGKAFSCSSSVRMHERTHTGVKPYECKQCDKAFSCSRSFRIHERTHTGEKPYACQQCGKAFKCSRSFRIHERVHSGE

What follows are substances tested against BRG1 (human (endogenous in MLS 402-91 and EWS TC-71)) (UniProt P51532) (assay: affinity purification with mass spectrometry; BRG1 IP: biotinylated BRG1 antibody on streptavidin magnetic beads, 50 µg nuclear extract of MLS 402-91 or of EWS TC-71 cells, 150 mM KCl, 10 mM Tris pH 7.5, overnight at 4 °C; TMT quantitative mass spectrometry; hits > 1.5-fold over the IgG control).

binding, binds:
BAF45C (from UniProt Q92784 1-378)
BAF60B (from UniProt Q92925 1-531)
BCL7A (from UniProt Q4VC05 1-210)
BCL7B (from UniProt Q9BQE9 1-202)
BRD9 (from UniProt Q9H8M2 1-597)
CHD7 (from UniProt Q9P2D1 1-2997)
EED (from UniProt O75530 1-441)
ELF2 (from UniProt Q15723 1-593)
EWSR1 (from UniProt Q01844 1-656)
FUS (from UniProt P35637 1-526)
GATA2 (from UniProt P23769 1-480)
GLTSCR1 (from UniProt Q9NZM4 1-1560)
H1-0 (from UniProt P07305 1-194)
H1-2 (from UniProt P16403 1-213)
H1-3 (from UniProt P16402 1-221)
H1-5 (from UniProt P16401 1-226)
H1-10 (from UniProt Q92522 1-213)
HMGN3 (from UniProt Q15651 1-99)
HOXD11 (from UniProt P31277 1-338)
HSP90B1 (from UniProt P14625 22-803)
JUN (from UniProt P05412 1-331)
MACROH2A2 (from UniProt Q9P0M6 1-372)
MYC (from UniProt P01106 1-454)
NF1 (from UniProt P21359 1-2839)
NSD3 (from UniProt Q9BZ95 1-1437)
PML (from UniProt P29590 1-882)
RUNX1 (from UniProt Q01196 1-453)
SOX6 (from UniProt P35712 1-828)
SP1 (from UniProt P08047 1-785)
SS18L1 (from UniProt O75177 1-396)
STAT3 (from UniProt P40763 1-770)
SUZ12 (from UniProt Q15022 1-739)
YBX1 (from UniProt P67809 1-324)
YY1 (from UniProt P25490 1-414)
ZNF709 (from UniProt Q8N972 1-641)

Results are given in words; binding and its absence hold for the method and conditions named. Binding seen in cells or lysates may run through a third protein. These calls come from enrichment with a bait or labelling near it, and not all partners need be listed.
